From PubChem BioAssay come the findings set out here.

Values joined by “and” are separate entries in the source; they are usually repeats but may differ in a detail not shown here. Equal values may be shown once. The list shows a part of the results. Further columns of the screen follow, without active or inactive calls.

This test is described as follows: protection against mutant huntingtin cytotoxicity, PC12 cells, LDH release (AID 1610). The settings on record: PC12 mutant huntingtin toxicity, final LDH at 4 uM, stronger effect = lower value.
For `OCCN(CCO)c1nc(N2CCCCC2)c2nc(N(CCO)CCO)nc(N3CCCCC3)c2n1`, the normalised LDH release was 0.85. Then `Cc1onc(-c2ccccc2Cl)c1C(=O)N[C@@H]1C(=O)N2[C@@H]1SC(C)(C)[C@@H]2C(=O)O`, with 0.992. The compound `C[C@]12C=CC(=O)C=C1CCC1C2C(=O)C[C@@]2(C)C1CC[C@]2(O)C(=O)CO` (some centres undefined) yielded a normalised LDH release of 0.943.

`C1CNCCN1`: the normalised LDH release was found to be 1.1. Then `NC(N)=NCCC[C@@H](NC(=O)[C@@H](N)Cc1ccc(O)cc1)C(=O)O`, with 1.01. Consider `Fc1ccc(C(c2ccccc2)(c2ccccc2F)n2ccnc2)cc1` (centres undefined), for which the normalised LDH release was 1.06 and 0.892. With `CCCCCCCCCCCCCCCC(=O)OC/C=C(C)/C=C/C=C(C)/C=C/C1=C(C)CCCC1(C)C`, the normalised LDH release came to 0.879. On to `CN1C(CC(=O)c2ccccc2)CCCC1CC(O)c1ccccc1` (centres undefined), for which the normalised LDH release was 0.794. Then `CCN(CC)CCOCCOC(=O)C1(c2ccccc2)CCCC1`, with 1.05; and `CCCCc1oc2ccccc2c1C(=O)c1cc(I)c(OCCN(CC)CC)c(I)c1`, with 0.952.

For the compound `C=CCc1ccc(O)c(OC)c1`, the normalised LDH release was determined as 0.776. Then `CCN(Cc1ccncc1)C(=O)C(CO)c1ccccc1` (centres undefined), with 0.997. Then `Cc1c(N)c(=O)n(-c2ccccc2)n1C`, with -0.535; and `O=C(OCc1ccccc1)c1ccccc1`, with 0.81. For the compound `C[C@]12C=CC(=O)C=C1CCC1C3C[C@@H](O)[C@](O)(C(=O)CO)[C@@]3(C)C[C@H](O)[C@@]12F` (some centres undefined), the normalised LDH release stood at 0.343. Then `COc1ccc(CCN2CCC(Nc3nc4ccccc4n3Cc3ccc(F)cc3)CC2)cc1`, with 1.39.

On to `COc1cc(OC)c2ccc(=O)oc2c1`, for which the normalised LDH release came out at 1.28. Then `CC(=O)OCC(=O)[C@@]12OC(C)(C)O[C@@H]1C[C@H]1C3C[C@H](F)C4=CC(=O)C=CC4(C)[C@@]3(F)[C@@H](O)C[C@@]12C` (some centres undefined), with 1.13. The compound `COc1ccc2c(c1)c(CC(=O)OCC(=O)O)c(C)n2C(=O)c1ccc(Cl)cc1` returned a normalised LDH release of 1.07.

Compound `CN1CCN(C(c2ccccc2)c2ccc(Cl)cc2)CC1` (centres undefined) had a normalised LDH release of 1.24. On to `CC1Cc2ccccc2N1NC(=O)c1ccc(Cl)c(S(N)(=O)=O)c1` (centres undefined), for which the normalised LDH release was determined as 1.11.

`NC[C@@H]1O[C@H](O[C@H]2[C@@H](O)[C@H](O[C@@H]3[C@@H](O)[C@H](N)C[C@H](N)[C@H]3O[C@@H]3O[C@H](CO)[C@@H](O)C[C@H]3N)O[C@@H]2CO)[C@H](N)[C@@H](O)[C@@H]1O[C@H]1O[C@H](CO)[C@@H](O)[C@H](O)[C@@H]1O` gave a normalised LDH release of 0.903. Then `NC(=O)c1cnccn1`, with 0.783; and `C[C@@H]1O[C@@H](OC[C@H]2O[C@@H](Oc3c(-c4ccc(O)c(O)c4)oc4cc(O)cc(O)c4c3=O)[C@H](O)[C@@H](O)[C@@H]2O)[C@H](O)[C@H](O)[C@H]1O`, with 0.805; and `NC(=O)c1ncn([C@@H]2O[C@H](CO)[C@@H](O)[C@H]2O)c1O`, with 1.19. Then `NS(=O)(=O)c1cc2c(cc1Cl)NC(C1CC3C=CC1C3)NS2(=O)=O` (centres undefined), with 1.11; and `CN(Cc1cc(Br)cc(Br)c1N)C1CCCCC1`, with 0.756; and `CCCNCC(O)COc1ccccc1C(=O)CCc1ccccc1` (centres undefined), with 1.27. The compound `C1CCC(C(CC2CCCCN2)C2CCCCC2)CC1` (centres undefined) came in with a normalised LDH release of 1.06.

Consider `CC12CC[C@@H]3c4ccc(O)cc4CCC3[C@@H]1CCC2=O` (some centres undefined), for which the normalised LDH release is 1.23. For the compound `CC(=O)OCC(=O)[C@@]1(O)[C@H](OC(C)=O)CC2C3CCC4=CC(=O)C=C[C@]4(C)[C@@]3(F)[C@@H](O)C[C@@]21C` (some centres undefined), the normalised LDH release came to 0.488. `COc1c2occc2c(OC)c2c(=O)cc(C)oc12`: the normalised LDH release came out at 0.989.

As for `O=c1n(CCCN2CCN(c3cccc(Cl)c3)CC2)nc2ccccn12`, the normalised LDH release came out at 0.545. Then `O=C1C(CCS(=O)c2ccccc2)C(=O)N(c2ccccc2)N1c1ccccc1` (centres undefined), with 0.711; and `CCN1CCCC1CNC(=O)c1cc(S(N)(=O)=O)ccc1OC` (centres undefined), with 0.705. Then `N=c1nc(N2CCCCC2)cc(N)n1O`, with 0.817; and `COc1cc(Cc2cnc(N)nc2N)cc(OC)c1OC`, with 0.784; and `CC[C@@H](CO)NCCN[C@@H](CC)CO`, with 1. Consider `Cc1ccc(C(C)C)cc2c(C)ccc1-2`, for which the normalised LDH release came to 0.965.
